# Experimental data published in PubChem BioAssay AID2417 (National Center for Advancing Translational Sciences (NCATS), 2010).
# Hit rate of the full screen: of about 140,000 compounds, about 4,300 (3.1%) were called active. Inconclusive results, whose numbers are uncertain, are shown with a selection of clear calls.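 How the source made its calls: active means readout at or below -70, meaning at least 70% loss of cells showing the perinucleolar compartment, a nuclear body marking cancer cells; inconclusive means readout between -30 and a set limit; inactive means the rest.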
# Test: High Content Assay for Compounds that inhibit the Assembly of the Perinucleolar Compartment;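 further: plate controls were DMSO wells for no effect and camptothecin positive control wells for full effect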
# Conditions: PC3M PTB-GFP, PNC prevalence imaging, 16 h; at 10 µM; hits give low values
# Method in brief: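 Read-out is percentage of cells bearing a perinucleolar compartment, from automated 20x imaging of fixed, Hoechst-stained PC3M PTB-GFP cells. Cells were seeded 4 h, then exposed 16 h to compound (23 nl of library stock) in duplicate plates.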
row,Compound,"activity change (PNC), negative = inhibition"
1,CCC(=C(c1ccc(OC)cc1)c1ccc(OC)cc1)c1cn(CC(O)CN2CCN(C)CC2)c2ccccc12 (configuration not stated),inconclusive: -33.7%
2,Cc1ccc(C(=O)N2CCc3ccccc32)cc1,inconclusive: -33.6%
3,Cc1cc(=O)[nH]c(SCC(=O)N2CCN(C(c3ccccc3)c3ccccc3)CC2)n1,inconclusive: -45.2%
4,CC1C2C(c3ccccc3)N(C)C(=O)N(C)C2N(C)C(=O)N1C (configuration not stated),inconclusive: -44.8%
5,CCOC(=O)c1c(NC(=O)CCC(=O)NCc2ccco2)sc2c1CCCC2,inconclusive: -65%
6,Cc1cc(=O)[nH]c(SCC(=O)N2CCCCCC2)n1,inconclusive: -68.5%
7,Cc1ccc(NCC(=O)N/N=C/c2cc3ccccc3nc2Cl)cc1,inactive: -13.2%
8,CCOc1ccccc1NC(=O)CSc1nnnn1-c1ccc(C(=O)OC)cc1,inconclusive: -40%
9,Cc1cccc2sc(N(CCCN(C)C)C(=O)c3nc4ccccc4s3)nc12,active: -118%
10,CCOC(=O)c1ccccc1NC(=O)CC1SC(=NC)N(C)C1=O (configuration not stated),inconclusive: -44.4%
11,Cc1ccc(Sc2cnn(-c3ccccc3)c(=O)c2Cl)cc1,inconclusive: -32%
12,CC(=O)c1ccc(OCCCC(=O)n2nnc3ccccc32)cc1,inactive: -2%
13,CCOC(=O)c1c(C)c(C(=O)NCC2CCCO2)c(C)n1CC (configuration not stated),inconclusive: -58%
14,CCOc1ccc(NC(=O)CSc2nnc(C3CC3)n2N)cc1,inconclusive: -38.8%
15,COC(=O)c1ccc(CNC(=O)COC(=O)CC23CC4CC(CC(Br)(C4)C2)C3)cc1,inconclusive: -30.3%
16,Cc1ccc2c(c1)nnn2C1CCN(S(=O)(=O)c2ccc(C(=O)NC3CCCC3)cc2)CC1,inconclusive: -39.6%
17,COC(=O)c1ccccc1NC(=O)CSc1nnnn1C,inconclusive: -53.7%
18,CCOC(=O)c1c(C)cccc1OCC(N)=O,active: -100%
19,CC(C)NC(=O)c1sc2nc3c(c(-c4cccs4)c2c1N)CN(C)CC3,inactive: 32.1%
20,Cc1ccc(S(=O)(=O)N2CCN(C(=O)CN3CCOCC3)C2)cc1,inconclusive: -32.7%
21,CNC(=O)c1ccc(-c2ccccc2)s1,inconclusive: -51.7%
22,Fc1cccc(Cl)c1-c1nnc2ccc(N3CCOCC3)nn12,inconclusive: -37.2%

row,Compound,"activity change (PNC), negative = inhibition"
1,O=C(CCS(=O)(=O)c1cccc2nonc12)N1CC(=O)N(CCc2ccccc2)C(=O)C1,inactive: 24.2%
2,Clc1ccccc1Cn1nc(-c2ccccc2)nc1-c1ccccc1,inconclusive: -40.7%
3,CC(NC(=O)CCC(=O)N1CCN(S(=O)(=O)c2ccc(Cl)cc2)CC1)c1ccccc1 (configuration not stated),inactive: -12.6%
4,COc1cccc(C(=O)NC(=S)Nc2cccnc2)c1,inconclusive: -36.6%
5,COc1ccc(/C=N/NC(=O)c2[nH]c(C)c(C(=O)N/N=C/c3ccc(OC)cc3)c2C)cc1,inconclusive: -46.6%
6,CCOC(=O)c1c(C)[nH]c(C)c1C(=O)COC(=O)/C=C/c1ccc(Cl)cc1,inactive: 7.31%
7,C=CCOc1nc(N(C)C)nc(N(C)C)n1,inconclusive: -37.9%
8,CCn1c(CNC(=O)c2ccc(OC)c(OC)c2)nnc1SCC(=O)Nc1ccc(OC)cc1,inactive: 19.1%
9,O=C(NC1CCCCCC1)c1cccs1,inconclusive: -43.2%
10,Nc1n[nH]c(N)c1N=Nc1ccc(Cl)cc1,inactive: -10.3%
11,O=S(=O)(NCCC1=CCCCC1)c1cccc(S(=O)(=O)N2CCOCC2)c1,inactive: 10.2%
12,O=C(NC1CC1)C1CCCN(C(=O)Nc2ccc(F)cc2)C1 (configuration not stated),inconclusive: -52.8%
13,Cc1cc(NC(=O)COC(=O)c2cc(S(=O)(=O)N3CCOCC3)ccc2N2CCCCC2)no1,inactive: 15.8%
14,CCCNC(=O)Cn1c(=O)/c(=C\c2ccc(-c3ccc([N+](=O)[O-])cc3)o2)s/c1=C\C(=O)C(C)(C)C,inconclusive: -63.8%
15,OCCN(C=NC1=NN(c2cccc(C(F)(F)F)c2)CC1)CCO,inactive: 42.6%
16,CSc1c(CC(=O)Nc2ccccc2Cl)n(Cc2ccccc2)c2ccccc12,inactive: 5.58%
17,CCCCCC/C(C)=C1/SC(=S)NC1=O,inactive: 73.9%
18,CC(NC(=O)CCCN1C(=O)c2ccccc2C1=O)c1ccc2c(c1)CCCC2 (configuration not stated),inconclusive: -79.4%
19,Cc1ccc(C(=O)NC(=S)N2CCN(c3ccccc3F)CC2)cc1,inconclusive: -37.5%
20,CCC(=O)NC(=S)Nc1ccc(NC(=O)c2ccc(C)c([N+](=O)[O-])c2)cc1,inconclusive: -33.1%
21,CN1/C(=C\C(=O)c2cccs2)Sc2ccccc21,inconclusive: -46.8%
22,Nc1ccnc(C(F)(F)F)c1C(=O)c1ccccc1,active: -81.6%

# Structures above with an aryl thioether with sulfur outside any ring (eight):
row,Compound,"activity change (PNC), negative = inhibition"
3,Cc1cc(=O)[nH]c(SCC(=O)N2CCN(C(c3ccccc3)c3ccccc3)CC2)n1,inconclusive: -45.2%
6,Cc1cc(=O)[nH]c(SCC(=O)N2CCCCCC2)n1,inconclusive: -68.5%
8,CCOc1ccccc1NC(=O)CSc1nnnn1-c1ccc(C(=O)OC)cc1,inconclusive: -40%
11,Cc1ccc(Sc2cnn(-c3ccccc3)c(=O)c2Cl)cc1,inconclusive: -32%
14,CCOc1ccc(NC(=O)CSc2nnc(C3CC3)n2N)cc1,inconclusive: -38.8%
17,COC(=O)c1ccccc1NC(=O)CSc1nnnn1C,inconclusive: -53.7%
8,CCn1c(CNC(=O)c2ccc(OC)c(OC)c2)nnc1SCC(=O)Nc1ccc(OC)cc1,inactive: 19.1%
16,CSc1c(CC(=O)Nc2ccccc2Cl)n(Cc2ccccc2)c2ccccc12,inactive: 5.58%

# The list continues.

row,Compound,"activity change (PNC), negative = inhibition"
1,COc1ccc(CC(=O)NC(=S)Nc2ccc(S(N)(=O)=O)cc2)cc1,inconclusive: -39.9%
2,COC(=O)c1ccc(NC(=O)CN(c2ccc(C)cc2)S(=O)(=O)c2c(C)nn(C)c2C)cc1,inactive: 13.2%
3,Nc1ccc(Sc2nnnn2-c2ccccc2)c(Cl)c1,inconclusive: -33.8%
4,CCOC(=O)c1c(C)[nH]c(C(=O)OCC(=O)Nc2ccc(OC)c(Cl)c2)c1C,inconclusive: -31.5%
5,O=c1c(Cl)c(N2CCN(c3ccc(F)cc3)CC2)cnn1C12CC3CC(CC(C3)C1)C2,inactive: -23.3%
6,Cc1cc(C)c(N(C(=O)CN2C(=O)c3ccccc3S2(=O)=O)C(C(=O)NCC2CCCO2)c2ccc(F)cc2)c(C)c1 (configuration not stated),inactive: 65.8%
7,Cc1noc(NS(=O)(=O)c2ccc(NC(=O)CCC3CCCCC3)cc2)c1C,inconclusive: -47.1%
8,CC1(C)CC(=O)C(C=NCCN2CCN(CCCCS(=O)(=O)O)CC2)=C(O)C1,inconclusive: -60.4%
9,CCc1ccc(/C=C/C(=O)c2ccc(N3CCOCC3)cc2)cc1,inactive: 23.8%
10,Cc1cc(NC(=O)CSc2nnc3c(C)cc4c(C)ccc(C)c4n23)no1,inactive: -14.2%
11,CCOC(=O)c1cnc(N2CCOCC2)[nH]c1=O,inconclusive: -52.5%
12,COC(C(=O)Nc1ccc(S(=O)(=O)N2CCCCC2)cc1)c1ccccc1 (configuration not stated),inconclusive: -40.1%
13,COc1ccc(-c2cc(C(=O)Nc3ccc(C)cc3)no2)cc1,inconclusive: -39.4%
14,O=C(c1ccccc1)N1CCN(C(=O)c2ccc(OC(F)(F)F)cc2)CC1,inconclusive: -32.9%
15,Cc1noc(NS(=O)(=O)c2ccc(NC(=O)CCn3c(=O)oc4ccccc43)cc2)c1C,inconclusive: -59.5%
16,COc1ccc(CNS(=O)(=O)c2ccc(S(=O)(=O)N3CCCCC3)cc2)cc1,inconclusive: -31.8%
17,CCC(=O)N1c2ccc(S(=O)(=O)CCC(=O)Nc3nccs3)cc2CC1C (configuration not stated),inconclusive: -31.6%
18,CCCCCCc1nnc(N)s1,inactive: 17.7%
19,CC(C)C1C(C#N)=C(N)Oc2n[nH]c(C(C)(C)C)c21 (configuration not stated),inconclusive: -46.3%
20,Cc1ccc(Cn2c(C)cc3c(c2=O)C(c2cccs2)C(C#N)=C(N)O3)cc1 (configuration not stated),inconclusive: -43.2%
21,COc1ccc(NC(=O)c2cc(S(=O)(=O)N(Cc3ccccc3)c3ccccc3)ccc2Cl)cn1,inactive: 21.2%
22,Cc1c([N+](=O)[O-])cc(C(=O)Nc2ccc(Cc3ccncc3)cc2)cc1[N+](=O)[O-],inactive: -1.43%

row,Compound,"activity change (PNC), negative = inhibition"
1,Cc1nnc(SCC(=O)Nc2sc3c(c2C#N)CCCC3)[nH]c1=O,inconclusive: -52.8%
2,N#Cc1ccc(NC(=O)COC(=O)C2Cc3ccccc3CN2C(=O)c2ccccc2)cc1 (configuration not stated),active: -97.8%
3,Cn1c(=O)[nH]c(=O)c2c1nc(CN1CCN(Cc3ccccc3)CC1)n2CC(N)=O,inconclusive: -31.8%
4,O=C1CCc2cc(S(=O)(=O)N3CCC(C(=O)NCCC4=CCCCC4)CC3)ccc2N1,inconclusive: -51.6%
5,COc1ccccc1OCCSc1nnnn1-c1ccc(C)cc1,inconclusive: -67%
6,CC(C)(C)NS(=O)(=O)c1ccc(NC(=O)NC2CCCCC2)cc1,inconclusive: -34.4%
7,CC(C)(C)n1nc2c(c1NC(=O)c1ccccc1F)CS(=O)C2 (configuration not stated),inconclusive: -49.2%
8,O=c1ccsn1Cc1ccccc1,inactive: -7.51%
9,CCC(=O)NC1(C(F)(F)F)C(=O)Nc2c1c(=O)n(C)c(=O)n2C (configuration not stated),inconclusive: -33.1%
10,CCCCN1C(=O)CC(Sc2ccccc2C(=O)O)C1=O (configuration not stated),inconclusive: -45.7%
11,CCOc1cc(NC(=S)Nc2cccc(OC)c2)c(OCC)cc1NC(=O)C(C)C,active: -106%
12,OC(Cn1nnc2ccccc21)Cn1c(C(F)(F)F)nc2ccccc21 (configuration not stated),inconclusive: -31.2%
13,Cc1cc(OC(F)F)ccc1NC(=O)Nc1ccc([N+](=O)[O-])cc1,inconclusive: -38.2%
14,Cc1ccccc1Nc1nc(N)nc(CN2C(=O)NC3(CCCCC3C)C2=O)n1 (configuration not stated),inactive: 10.6%
15,CCOc1ccc(C(=O)c2cc([N+](=O)[O-])ccc2N2CCOCC2)cc1,inconclusive: -49.3%
16,Cc1cc(C)nc(SCC(=O)c2cc3ccccc3oc2=O)n1,inactive: -29.2%
17,O=c1oc2ccccc2cc1-c1csc(NN=C2CCCCC2)n1,inconclusive: -31.8%
18,CN1/C(=C\C(=O)CSc2nnc(NCc3ccccc3)s2)C(C)(C)c2ccccc21,inactive: 27.8%
19,CCC(C)(C)n1nnnc1C(c1cc2ccc(OC)cc2[nH]c1=O)N1CCN(C2CCCCC2)CC1 (configuration not stated),inconclusive: -66.7%
20,CCCCOC(=O)C1CCCC(C(=O)OCCCC)N1 (configuration not stated),inconclusive: -43.4%
21,Cn1nnnc1SCC(=O)N1c2ccccc2Sc2ccc(Cl)cc21,inconclusive: -34.1%
